Publication doi:10.1101/2021.10.01.462544
These are yes or no findings as the source states them, for the method shown. Binding calls can cover weak binding; strength is not graded here. For part of these data: Sequences can lack the tags named with a protein. For part of these data: Binding seen in cells or lysates may run through a third protein.

T1: BD-AtCGL160N, AtCGL160N (29-206 aa) fused to the GAL4 DNA-binding domain (Arabidopsis thaliana) (UniProt O82279)
T1 sequence: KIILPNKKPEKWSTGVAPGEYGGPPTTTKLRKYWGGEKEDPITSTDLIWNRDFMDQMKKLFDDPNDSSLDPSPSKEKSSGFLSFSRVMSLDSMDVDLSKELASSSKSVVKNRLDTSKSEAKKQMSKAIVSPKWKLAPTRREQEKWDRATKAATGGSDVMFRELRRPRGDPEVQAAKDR

B1: AtCGL160, endogenous in wild-type (Col-0) thylakoids (protein, UniProt O82279 47-350)
chain: GEYGGPPTTTKLRKYWGGEKEDPITSTDLIWNRDFMDQMKKLFDDPNDSSLDPSPSKEKSSGFLSFSRVMSLDSMDVDLSKELASSSKSVVKNRLDTSKSEAKKQMSKAIVSPKWKLAPTRREQEKWDRATKAATGGSDVMFRELRRPRGDPEVQAAKDREQYFKLKNKIQVLTLGIGGVGLVSAYISYTPEIALSFGAGLLGSLAYMRMLGNSVDAMADGARGVAKGAANQPRLLVPVVLVMIFNRWNAILVPEYGFMHLELIPMLVGFFTYKIATFFQAIEEAISITTQKPESISPDTQASD

How the values were obtained:
[1] = target: T1, BD-AtCGL160N, AtCGL160N (29-206 aa) fused to the GAL4 DNA-binding domain (Arabidopsis thaliana); assay: two-hybrid
[2] = target: CF1-CFO holo-complex (chloroplast ATP synthase), endogenous in wild-type thylakoids (Arabidopsis thaliana (endogenous in Col-0 thylakoids)); assay: cross-linking

Molecule	binding [1]	binding [2]
AD-AtCGLD11, CF1 assembly factor AtCGLD11 fused to the GAL4 activation domain (Arabidopsis thaliana)	no binding	–
AD-CF1-βI, domain I of CF1-β fused to the GAL4 activation domain (domain or fragment)	no binding	–
AD-CF1-βII, domain II of CF1-β fused to the GAL4 activation domain (domain or fragment)	no binding	–
AD-CF1-βIII, domain III of CF1-β fused to the GAL4 activation domain (domain or fragment)	binds	–
AD-CF1-γ, CF1-γ fused to the GAL4 activation domain	no binding	–
B1	–	binds
